Taken from: PubChem BioAssay AID602196 (INSERM, 2012)

Assay: 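Modifiers of cisplatin sensitivity in A549 cells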
Cell system: human A549 lung cancer cells
Reagents: siRNA pair against human genes
Time to read-out: 48 h transfection before cisplatin; time from cisplatin to read-out not stated
Treatment: cisplatin at a dose killing half of control-siRNA cells; exact dose and duration not given
Measured: 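Shift in cisplatin death relative to control siRNA, from -50 (all cells die) to +50 (no cells die); siRNAs harmful on their own scored 0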
Scale: two-siRNA summed score (-2 to +2): higher = both siRNAs protect from cisplatin killing; -2 means both sensitise
Call rule: 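siRNAs harmful alone (LDH or WST-1) get 0; others get +1 for less and -1 for more cisplatin killing; genes are active when the two siRNAs give the same sign, summing to ±2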
Meaning of the calls: active = both siRNAs shift cisplatin killing the same way; inactive = no consistent shift, or siRNA harmful alone
Shown is one part, drawn at random, of about 23,000 reagents tested. 455 of all reagents (2%) were called active. 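Active includes both protection and sensitisation; some change values fall well beyond the stated -50 to +50 range.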 Not all columns of the deposit are shown. The record does not give: the amount of reagent.

CCRL2: two-siRNA summed score (-2 to +2) = 1; Outcome = inactive
AMELY: two-siRNA summed score (-2 to +2) = 1; Outcome = inactive
DHODH: two-siRNA summed score (-2 to +2) = 0; Outcome = inactive
C2orf15: two-siRNA summed score (-2 to +2) = 0; Outcome = inactive
CST7: two-siRNA summed score (-2 to +2) = 1; Outcome = inactive

An excerpt of the results above:
DHODH: two-siRNA summed score (-2 to +2) = 0; Outcome = inactive
C2orf15: two-siRNA summed score (-2 to +2) = 0; Outcome = inactive

Continued:
CSRP2: two-siRNA summed score (-2 to +2) = 1; Outcome = inactive
FANCI: two-siRNA summed score (-2 to +2) = 1; Outcome = inactive
LOC442150: two-siRNA summed score (-2 to +2) = 0; Outcome = inactive
LOC401548: two-siRNA summed score (-2 to +2) = 0; Outcome = inactive
GOLPH3L: two-siRNA summed score (-2 to +2) = 0; Outcome = inactive
RNF150: two-siRNA summed score (-2 to +2) = -1; Outcome = inactive
LSM7: two-siRNA summed score (-2 to +2) = 0; Outcome = inactive
